Measured values published in PubChem BioAssay AID617 (SRMLSC, 2007).
Screen size: about 1,300 compounds; about 1,200 (92%) were called active. The rule behind the calls is not given here. So high a share suggests a set chosen from earlier hits. The entries are a selection whose mix differs from that of the whole data set. Results with a measured potency or affinity are listed apart.

assay: E. coli ΔtolC antibacterial growth inhibition – strain BW25113 ΔtolC::kan, dose response (AID 617); conditions: OD615, at 100 µM (top of the series)
Summary of the method: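 Test system: E. coli BW25113 ΔtolC::kan bacteria / Buffer or medium: kanamycin-containing LB broth, 50 µg/mL / Compound: serial dilution series of compound / Incubation: bacterial growth with compound for 20 h, 37 °C / Measured by: OD615 / Read-out basis: growth-inhibition IC50 from four-parameter logistic curve, bounds set to 0% and 100%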

Q: Which growth inhibition does the source give for FC(F)(F)c1ccc2c(c1)nnn2C1CCN(Cc2nnnn2Cc2ccccc2)CC1 here?
A: inactive: 8.88%
